PubChem BioAssay AID504808 | Drosophila RNAi Screening Center, 2011
The screen tested about 21,000 reagents; shown is a random part of those with a known target gene and a result. Of all reagents, 18 (0.084%) are marked active. 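Raw counts without plate normalisation, one of two replicates; the ratio scores behind the calls were not deposited.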 A number with no mark means an inactive call. Not stated in the record: the amount of reagent, the time to read-out.

Assay: 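Chromatin factors that keep E2F targets switched off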 (primary screen)
Cells: Drosophila S2 cells
Reagents: long dsRNA against Drosophila genes
Detection: 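Firefly luciferase driven by E2F sites, normalised to Renilla luciferase on the same minimal promoter, measured by plate reader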
Reading the numbers: E2F firefly: higher = more E2F reporter activity; Renilla normaliser: higher = more normaliser reporter signal
Rule for the call: 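a knock-down counted as active when the firefly/Renilla E2F signal rose above 50%, a threshold chosen arbitrarily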

After knock-down of csul [DRSC07599] the results were E2F firefly, rep 1 = 1.39e5; Renilla normaliser, rep 1 = 5080.
Silencing of MED7 [DRSC16059] resulted in: E2F firefly, rep 1 = 88659; Renilla normaliser, rep 1 = 6658.
Knock-down of Mst84Dc [DRSC12599] resulted in: E2F firefly, rep 1 = 1.39e5; Renilla normaliser, rep 1 = 6335.
For CG31805 [DRSC01563] the deposit lists E2F firefly, rep 1 = 1.41e5; Renilla normaliser, rep 1 = 5588.
CG9933 [DRSC03276] scored E2F firefly, rep 1 = 95299; Renilla normaliser, rep 1 = 3988.
Depletion of CG31275 [DRSC16919] resulted in: E2F firefly, rep 1 = 1.16e5; Renilla normaliser, rep 1 = 6793.
Knock-down of CG43347 [DRSC17982] resulted in: E2F firefly, rep 1 = 77891; Renilla normaliser, rep 1 = 4251.
Against CG43347 [DRSC18446], the entry reads E2F firefly, rep 1 = 1.27e5; Renilla normaliser, rep 1 = 5747.
CG14455 [DRSC11712] showed E2F firefly, rep 1 = 1.20e5; Renilla normaliser, rep 1 = 6665.
Knock-down of CG12902 [DRSC06217] resulted in: E2F firefly, rep 1 = 1.30e5; Renilla normaliser, rep 1 = 4635.
For CG33229 [DRSC07863], the entry reads E2F firefly, rep 1 = 1.35e5; Renilla normaliser, rep 1 = 4013.
With knock-down of SMC6 [DRSC15829], the record shows E2F firefly, rep 1 = 1.09e5; Renilla normaliser, rep 1 = 5241.
Silencing of CG32333 [DRSC08627] came out at: E2F firefly, rep 1 = 79766; Renilla normaliser, rep 1 = 3562.
Against CG32333 [DRSC08629], the values are E2F firefly, rep 1 = 89075; Renilla normaliser, rep 1 = 4516.
Depletion of CG4066 [DRSC15541] came out at: E2F firefly, rep 1 = 1.57e5; Renilla normaliser, rep 1 = 6592.
RtcB [DRSC03280] gave E2F firefly, rep 1 = 99362; Renilla normaliser, rep 1 = 4371.
Against D [DRSC11132], the values are E2F firefly, rep 1 = 1.65e5; Renilla normaliser, rep 1 = 7395.
After knock-down of Snx6 [DRSC03081], the record shows E2F firefly, rep 1 = 87801; Renilla normaliser, rep 1 = 3904.
Imp [DRSC18861] gave E2F firefly, rep 1 = 85426; Renilla normaliser, rep 1 = 2814.
Imp [DRSC20255] scored E2F firefly, rep 1 = 7055; Renilla normaliser, rep 1 = 828.
After knock-down of Lrpprc2 [DRSC18605], the screen gave E2F firefly, rep 1 = 1707; Renilla normaliser, rep 1 = 1052.
For CG14989 [DRSC08448], the values are E2F firefly, rep 1 = 79613; Renilla normaliser, rep 1 = 3672.
Silencing of CG5435 [DRSC02860] gave: E2F firefly, rep 1 = 99928; Renilla normaliser, rep 1 = 4293.
CG14377 [DRSC14837] scored E2F firefly, rep 1 = 1.12e5; Renilla normaliser, rep 1 = 5903.
For casp [DRSC07164] the deposit lists E2F firefly, rep 1 = 67018; Renilla normaliser, rep 1 = 3573.
Las [DRSC11772] showed E2F firefly, rep 1 = 69744; Renilla normaliser, rep 1 = 4145.
ppk6 [DRSC06062] gave E2F firefly, rep 1 = 1.29e5; Renilla normaliser, rep 1 = 5023.
With knock-down of TER94 [DRSC07560], the record shows E2F firefly, rep 1 = 3320; Renilla normaliser, rep 1 = 59.
Against CG30116 [DRSC05935], the entry reads E2F firefly, rep 1 = 60214; Renilla normaliser, rep 1 = 3330.
For CG30116 [DRSC06685], the values are E2F firefly, rep 1 = 1.61e5; Renilla normaliser, rep 1 = 5067.
With knock-down of CG13841 [DRSC14691], the screen gave E2F firefly, rep 1 = 80560; Renilla normaliser, rep 1 = 6140.
With knock-down of Ir52a [DRSC06262], the record shows E2F firefly, rep 1 = 1.03e5; Renilla normaliser, rep 1 = 4153.
For OtopLb [DRSC00594] the deposit lists E2F firefly, rep 1 = 88657; Renilla normaliser, rep 1 = 3797.
After knock-down of CG32523 [DRSC20510], the record shows E2F firefly, rep 1 = 1.42e5; Renilla normaliser, rep 1 = 6981.
Silencing of CG31183 [DRSC14403] came out at: E2F firefly, rep 1 = 1.18e5; Renilla normaliser, rep 1 = 6400.
With knock-down of CG31183 [DRSC15554], the screen gave E2F firefly, rep 1 = 75079; Renilla normaliser, rep 1 = 3491.
